The record followed here is article PMC3364200.

Protein sequences, listed by entry. Tags and fused reporters are not part of them.
UniProt Q921N8: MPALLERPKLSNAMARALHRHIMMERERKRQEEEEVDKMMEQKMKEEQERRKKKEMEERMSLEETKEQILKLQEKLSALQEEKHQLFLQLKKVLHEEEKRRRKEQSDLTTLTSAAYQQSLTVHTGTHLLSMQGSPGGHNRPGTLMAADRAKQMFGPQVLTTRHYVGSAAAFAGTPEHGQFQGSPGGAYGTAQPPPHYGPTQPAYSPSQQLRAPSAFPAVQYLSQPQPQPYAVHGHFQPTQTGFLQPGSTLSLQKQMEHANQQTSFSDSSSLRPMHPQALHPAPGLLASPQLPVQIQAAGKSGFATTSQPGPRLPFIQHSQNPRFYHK

Test [1] deals with T1, DIPA-Myc (UniProt Q6PDY0).
T1 sequence: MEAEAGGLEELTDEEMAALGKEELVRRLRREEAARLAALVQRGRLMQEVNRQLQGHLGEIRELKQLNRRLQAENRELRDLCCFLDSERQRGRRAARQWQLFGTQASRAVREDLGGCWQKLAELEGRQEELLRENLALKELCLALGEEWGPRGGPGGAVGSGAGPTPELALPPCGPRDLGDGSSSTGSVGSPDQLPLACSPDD
Briefly: co-IP; 293/T cells co-transfected with Flag-ANKRD26-C and a Myc-tagged partner; about 1 mg lysate (20 mM Tris-HCl pH7.5, 150 mM NaCl, 5 mM EDTA, 1% NP40) with 1.5 µg anti-myc antibody 2 hr at 4°C, protein A sepharose; blots with anti-Myc and anti-Flag.

In test [2] the target is TRIO-Myc (TRIO interacting region, aa 773–1059) (UniProt Q0KL02). The test is described as above.
For the next test, the target named is GPS2-Myc (UniProt Q921N8). The test is described as above.
The next test addresses T2, HMMR-Myc (UniProt Q00547).
T2 sequence: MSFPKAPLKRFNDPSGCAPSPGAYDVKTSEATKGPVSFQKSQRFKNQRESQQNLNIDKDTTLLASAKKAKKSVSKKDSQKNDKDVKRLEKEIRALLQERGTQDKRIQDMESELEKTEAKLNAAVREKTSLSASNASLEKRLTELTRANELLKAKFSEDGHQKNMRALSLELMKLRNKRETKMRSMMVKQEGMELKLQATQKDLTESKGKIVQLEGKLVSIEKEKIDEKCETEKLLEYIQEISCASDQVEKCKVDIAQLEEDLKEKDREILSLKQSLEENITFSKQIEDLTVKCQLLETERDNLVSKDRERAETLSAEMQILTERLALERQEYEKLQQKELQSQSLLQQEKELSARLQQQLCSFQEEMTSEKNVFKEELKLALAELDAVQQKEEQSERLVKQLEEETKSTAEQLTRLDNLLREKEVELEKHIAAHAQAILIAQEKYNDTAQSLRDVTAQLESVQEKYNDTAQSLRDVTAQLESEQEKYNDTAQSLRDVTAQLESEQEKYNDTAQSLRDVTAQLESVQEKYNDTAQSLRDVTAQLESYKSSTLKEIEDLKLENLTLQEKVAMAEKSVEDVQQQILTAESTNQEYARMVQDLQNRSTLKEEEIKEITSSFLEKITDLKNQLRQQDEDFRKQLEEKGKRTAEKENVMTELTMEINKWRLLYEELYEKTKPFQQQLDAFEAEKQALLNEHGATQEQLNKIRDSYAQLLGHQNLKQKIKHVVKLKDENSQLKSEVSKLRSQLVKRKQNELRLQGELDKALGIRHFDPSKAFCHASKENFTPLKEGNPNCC
The description is as above.

Test [3] has as its target T1, DIPA-Myc. The test is described as follows: co-IP; data not shown; IP experiment with DIPA-Myc and an EGFP tagged ANKRD26-C construct.

These are yes or no findings as the source states them, for the method shown. Binding seen in cells or lysates may run through a third protein. Some results given as binding are weak or reduced against the parent protein; the word gives no strength. Tags and fused reporters may be left off the sequences shown.

B1: Flag-ANKRD26-C (human ANKRD26, 1212–1710 fragment) (domain or fragment, UniProt Q9UPS8 1212-1710)
chain: NEKAEREVVVRQLQQELADTLKKQSMSEASLEVTSRYRINLEDETQDLKKKLGQIRNQLQEAQDRHTEAVRCAEKMQDHKQKLEKDNAKLKVTVKKQMDKIEELQKNLLNANLSEDEKEQLKKLMELKQSLECNLDQEMKKNVELEREITGFKNLLKMTRKKLNEYENGEFSFHGDLKTSQFEMDIQINKLKHKIDDLTAELETAGSKCLHLDTKNQILQEELLSMKTVQKKCEKLQKNKKKLEQEVINLRSHIERNMVELGQVKQYKQEIEERARQEIAEKLKEVNLFLQAQAASQENLEQFRENNFASMKSQMELRIKDLESELSKIKTSQEDFNKTELEKYKQLYLEELKVRKSLSSKLTKTNERLAEVNTKLLVEKQQSRSLFTTLTTRPVMEPPCVGNLNNSLDLNRKLIPRENLVISTSNPRASNNSMENYLSKMQQELEKNITRELKEAAAELESGSIASPLGSTDESNLNQDLVWKASREYVQVLKKNYMI
Consider B1, for which the binding result (with DIPA-Myc [1]; in test [2]; with GPS2-Myc; in the test with HMMR-Myc) was “binds” in each case.

B2: EGFP tagged ANKRD26-C construct (domain or fragment, UniProt Q9UPS8 1212-1710)
chain: B1 chain
Take B2: the binding entry in the test with DIPA-Myc [3] is given as “binds”.
